Measured values from article PMC10679098.
No constants are given. Whether binding was seen depends on the method and setting. Binding seen in cells or lysates may run through a third protein. Some entries that bind do so weakly or less than the wild type.

Biological target: Epidermal growth factor receptor (EGFR), endogenous (human (endogenous in 786-O and Caki-1)) (UniProt P00533)
Assay: co-IP; endogenous co-IP from 786-O and Caki-1 cells; about 200 ug total cellular protein incubated with the target antibody overnight at 4 °C, protein A-agarose beads, rabbit control IgG as negative control, immunoblot

binding: binds
B1: Procollagen-lysine, 2-oxoglutarate 5-dioxygenase 2 (PLOD2), endogenous (enzyme, UniProt O00469 26-737)
chain: ADSEKPSSIPTDKLLVITVATKESDGFHRFMQSAKYFNYTVKVLGQGEEWRGGDGINSIGGGQKVRLMKEVMEHYADQDDLVVMFTECFDVIFAGGPEEVLKKFQKANHKVVFAADGILWPDKRLADKYPVVHIGKRYLNSGGFIGYAPYVNRIVQQWNLQDNDDDQLFYTKVYIDPLKREAINITLDHKCKIFQTLNGAVDEVVLKFENGKARAKNTFYETLPVAINGNGPTKILLNYFGNYVPNSWTQDNGCTLCEFDTVDLSAVDVHPNVSIGVFIEQPTPFLPRFLDILLTLDYPKEALKLFIHNKEVYHEKDIKVFFDKAKHEIKTIKIVGPEENLSQAEARNMGMDFCRQDEKCDYYFSVDADVVLTNPRTLKILIEQNRKIIAPLVTRHGKLWSNFWGALSPDGYYARSEDYVDIVQGNRVGVWNVPYMANVYLIKGKTLRSEMNERNYFVRDKLDPDMALCRNAREMGVFMYISNRHEFGRLLSTANYNTSHYNNDLWQIFENPVDWKEKYINRDYSKIFTENIVEQPCPDVFWFPIFSEKACDELVEEMEHYGKWSGGKHHDSRISGGYENVPTDDIHMKQVDLENVWLHFIREFIAPVTLKVFAGYYTKGFALLNFVVKYSPERQRSLRPHHDASTFTINIALNNVGEDFQGGGCKFLRYNCSIESPRKGWSFMHPGRLTHLHEGLPVKNGTRYIAVSFIDP
